# PubChem BioAssay AID1259405, NCATS | 2018
# Assay: 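Knock-downs that lift recombinant protein yield in hamster ovary cells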 (primary screen)
# System: Chinese hamster CHO-K1 ovary cells with stable secreted eGFP expression
# Reagents: single siRNA against mouse genes, 0.8 pmol siRNA per well (2 µl of 400 nM stock)
# Time to read-out: 3 days
# Measured: 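Percent of the per-plate non-targeting control median for intracellular GFP per well by laser scanning cytometry and for cell viability by ATP luminescence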
# Scale: GFP, % of control: higher = more GFP per well, higher productivity; viability (ATP), % of control: higher = more viable cells (more ATP)
# Call rule: 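a knock-down is called active if GFP reaches 120% or more of non-targeting control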
# The deposit covers about 50,000 reagents; this is a part drawn at random. About 4,000 of all reagents (8%) were called active. 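Mouse siRNA library applied to hamster cells; one well for each siRNA.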 The numbers tell different reagents against one gene apart.
Target gene,reagent no.,"GFP, % of control","viability (ATP), % of control",Outcome
Terf1 (telomeric repeat binding factor 1),1,62.7,44.3,inactive
Terf1 (telomeric repeat binding factor 1),2,66.1,72.1,inactive
Terf1 (telomeric repeat binding factor 1),3,80.7,66.9,inactive
Teddm3 (transmembrane epididymal family member 3),1,133,98.6,active
Teddm3 (transmembrane epididymal family member 3),2,88.7,105,inactive
Teddm3 (transmembrane epididymal family member 3),3,76.1,85.6,inactive
Zfp738 (zinc finger protein 738),1,97.5,58.4,inactive
Zfp738 (zinc finger protein 738),2,66,73.4,inactive
Zfp738 (zinc finger protein 738),3,95.9,71.5,inactive
Zfp738 (zinc finger protein 738),4,54.1,52.5,inactive
Zfp738 (zinc finger protein 738),5,78.2,99.5,inactive
Zfp738 (zinc finger protein 738),6,101,114,inactive
Lrrc49 (leucine rich repeat containing 49),1,60.2,48,inactive
Lrrc49 (leucine rich repeat containing 49),2,96.5,73.3,inactive
Lrrc49 (leucine rich repeat containing 49),3,95.6,66,inactive
Sct (secretin),1,64.6,78.8,inactive
Sct (secretin),2,58.5,49.5,inactive
Sct (secretin),3,66.7,40.8,inactive
Sgk3 (serum/glucocorticoid regulated kinase 3),1,88.8,84.1,inactive
Sgk3 (serum/glucocorticoid regulated kinase 3),2,60.9,74.2,inactive
Sgk3 (serum/glucocorticoid regulated kinase 3),3,68.9,55.8,inactive
Cpd (carboxypeptidase D),1,70.8,58.7,inactive
Cpd (carboxypeptidase D),2,181,75.7,active
Cpd (carboxypeptidase D),3,41.8,38.6,inactive
U2af1l4 (U2 small nuclear RNA auxiliary factor 1-like 4),1,31.8,56.6,inactive
U2af1l4 (U2 small nuclear RNA auxiliary factor 1-like 4),2,43.7,66.9,inactive
U2af1l4 (U2 small nuclear RNA auxiliary factor 1-like 4),3,113,83.2,inactive
Pbx3 (pre B cell leukemia homeobox 3),1,104,91.2,inactive
Pbx3 (pre B cell leukemia homeobox 3),2,59.5,75,inactive
Pbx3 (pre B cell leukemia homeobox 3),3,71.9,59.1,inactive
Taar6 (trace amine-associated receptor 6),1,109,85,inactive
Taar6 (trace amine-associated receptor 6),2,80.8,74.4,inactive
Taar6 (trace amine-associated receptor 6),3,62.5,68.9,inactive
Or10ak8 (olfactory receptor family 10 subfamily AK member 8),1,54.8,69,inactive
Or10ak8 (olfactory receptor family 10 subfamily AK member 8),2,91.3,80.9,inactive
Or10ak8 (olfactory receptor family 10 subfamily AK member 8),3,61.8,67.2,inactive
Atp5mk (ATP synthase membrane subunit k),1,43.2,46.4,inactive
Atp5mk (ATP synthase membrane subunit k),2,40.5,37.1,inactive
Atp5mk (ATP synthase membrane subunit k),3,74.7,84.3,inactive
Gatad2b (GATA zinc finger domain containing 2B),1,120,104,active
Gatad2b (GATA zinc finger domain containing 2B),2,101,70.8,inactive
Gatad2b (GATA zinc finger domain containing 2B),3,64.4,78.7,inactive
Tssk3 (testis-specific serine kinase 3),1,88,59.8,inactive
Ttn (titin),1,70.5,64.4,inactive
Ttn (titin),2,97.1,91.4,inactive
Ttn (titin),3,86.3,64.4,inactive
Havcr2 (hepatitis A virus cellular receptor 2),1,124,81,active
Havcr2 (hepatitis A virus cellular receptor 2),2,89.5,68.1,inactive
"Phlda1 (pleckstrin homology like domain, family A, member 1)",1,50,50.5,inactive
"Phlda1 (pleckstrin homology like domain, family A, member 1)",2,84.9,74.6,inactive
"Phlda1 (pleckstrin homology like domain, family A, member 1)",3,87.3,109,inactive
Enc1 (ectodermal-neural cortex 1),1,62.7,67.7,inactive
Enc1 (ectodermal-neural cortex 1),2,121,126,active
Nid2 (nidogen 2),1,79.9,112,inactive
Nid2 (nidogen 2),2,116,79.4,inactive
Pglyrp1 (peptidoglycan recognition protein 1),1,137,78.3,active
Pglyrp1 (peptidoglycan recognition protein 1),2,97.8,75.5,inactive
Pglyrp1 (peptidoglycan recognition protein 1),3,55.5,39.1,inactive

Copied from above (5 entries):
Target gene,reagent no.,"GFP, % of control","viability (ATP), % of control",Outcome
Teddm3 (transmembrane epididymal family member 3),3,76.1,85.6,inactive
Zfp738 (zinc finger protein 738),1,97.5,58.4,inactive
Zfp738 (zinc finger protein 738),2,66,73.4,inactive
Zfp738 (zinc finger protein 738),3,95.9,71.5,inactive
Zfp738 (zinc finger protein 738),4,54.1,52.5,inactive
